In publication PMC5492891 one finds binding data, which are given here for 1 substance.

Chains of the proteins cited; added tags and fusions are not shown.
UniProt P11369: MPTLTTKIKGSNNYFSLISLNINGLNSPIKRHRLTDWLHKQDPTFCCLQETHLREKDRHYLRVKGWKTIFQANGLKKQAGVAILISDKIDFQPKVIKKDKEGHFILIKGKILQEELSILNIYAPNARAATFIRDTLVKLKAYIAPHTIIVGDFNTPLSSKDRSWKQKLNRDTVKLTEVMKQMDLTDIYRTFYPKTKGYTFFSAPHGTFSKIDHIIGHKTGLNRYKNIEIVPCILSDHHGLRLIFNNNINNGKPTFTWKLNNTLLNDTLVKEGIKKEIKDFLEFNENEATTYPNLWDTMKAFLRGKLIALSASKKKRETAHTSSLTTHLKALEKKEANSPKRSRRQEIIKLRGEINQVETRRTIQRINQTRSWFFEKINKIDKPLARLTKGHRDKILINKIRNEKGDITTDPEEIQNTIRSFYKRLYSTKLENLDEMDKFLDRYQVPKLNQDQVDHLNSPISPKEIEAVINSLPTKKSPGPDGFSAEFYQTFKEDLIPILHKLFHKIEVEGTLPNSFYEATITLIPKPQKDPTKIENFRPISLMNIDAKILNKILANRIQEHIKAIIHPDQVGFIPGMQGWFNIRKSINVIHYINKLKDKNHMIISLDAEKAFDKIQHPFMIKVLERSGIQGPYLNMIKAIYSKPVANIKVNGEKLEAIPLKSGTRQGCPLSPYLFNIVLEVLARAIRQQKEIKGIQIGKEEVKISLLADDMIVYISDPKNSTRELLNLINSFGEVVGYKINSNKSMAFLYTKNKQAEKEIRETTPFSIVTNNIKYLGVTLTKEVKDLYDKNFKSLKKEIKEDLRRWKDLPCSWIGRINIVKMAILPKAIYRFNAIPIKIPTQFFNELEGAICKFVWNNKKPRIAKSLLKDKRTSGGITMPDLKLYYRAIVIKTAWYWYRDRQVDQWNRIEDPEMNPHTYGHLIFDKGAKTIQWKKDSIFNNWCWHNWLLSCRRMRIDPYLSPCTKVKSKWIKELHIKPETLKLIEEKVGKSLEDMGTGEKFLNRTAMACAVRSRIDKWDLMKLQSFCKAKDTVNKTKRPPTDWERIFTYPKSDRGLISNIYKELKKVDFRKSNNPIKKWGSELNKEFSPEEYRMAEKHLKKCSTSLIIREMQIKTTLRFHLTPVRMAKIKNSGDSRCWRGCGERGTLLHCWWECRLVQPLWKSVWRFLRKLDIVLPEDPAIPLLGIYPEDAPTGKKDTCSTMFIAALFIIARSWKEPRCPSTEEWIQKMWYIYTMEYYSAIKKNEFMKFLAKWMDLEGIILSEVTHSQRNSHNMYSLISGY

Results are given in words; binding and its absence hold for the method and conditions named. In cells and extracts the contact can be indirect. Some entries that bind do so weakly or less than the wild type.

For this test, the target named is T1, Mov10 (endogenous, P2 mouse brain) (mouse (endogenous in P2 brain)) (UniProt P23249).
T1 sequence: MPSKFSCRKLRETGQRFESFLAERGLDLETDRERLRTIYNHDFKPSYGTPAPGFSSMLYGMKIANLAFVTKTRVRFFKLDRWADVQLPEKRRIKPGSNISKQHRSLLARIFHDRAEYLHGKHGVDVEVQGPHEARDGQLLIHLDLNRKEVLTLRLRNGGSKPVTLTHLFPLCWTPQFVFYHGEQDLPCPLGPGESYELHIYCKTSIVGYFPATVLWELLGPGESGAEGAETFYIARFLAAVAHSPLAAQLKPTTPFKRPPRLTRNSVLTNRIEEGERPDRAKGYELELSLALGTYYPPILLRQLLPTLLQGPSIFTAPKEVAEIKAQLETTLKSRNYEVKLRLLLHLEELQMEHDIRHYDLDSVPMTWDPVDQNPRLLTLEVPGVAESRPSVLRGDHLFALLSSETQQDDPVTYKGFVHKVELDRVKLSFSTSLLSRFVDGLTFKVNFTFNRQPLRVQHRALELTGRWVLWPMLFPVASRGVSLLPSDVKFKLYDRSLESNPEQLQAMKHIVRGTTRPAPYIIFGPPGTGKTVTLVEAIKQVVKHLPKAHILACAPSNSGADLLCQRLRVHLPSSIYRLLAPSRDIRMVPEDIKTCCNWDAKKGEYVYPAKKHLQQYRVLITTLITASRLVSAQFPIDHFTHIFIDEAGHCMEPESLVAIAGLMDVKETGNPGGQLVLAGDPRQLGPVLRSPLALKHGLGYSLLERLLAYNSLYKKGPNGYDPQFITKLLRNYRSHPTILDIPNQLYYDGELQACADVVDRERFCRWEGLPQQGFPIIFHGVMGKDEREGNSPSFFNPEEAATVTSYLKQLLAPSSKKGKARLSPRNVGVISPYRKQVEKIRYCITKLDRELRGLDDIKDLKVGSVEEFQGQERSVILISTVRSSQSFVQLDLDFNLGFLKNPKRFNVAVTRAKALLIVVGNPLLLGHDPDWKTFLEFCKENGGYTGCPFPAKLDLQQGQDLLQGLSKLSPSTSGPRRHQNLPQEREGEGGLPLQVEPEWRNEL
The test can be described thus: co-IP; Mov10 or irrelevant antibody IP from P2 mouse brains, immunoblotted for L1-ORF2; with and without RNAse treatment. (In western blotting, separated proteins are transferred to a membrane and probed.)

With “L1 ORF2p, the RT/endonuclease encoded by L1 (from UniProt P11369 1-1281) (enzyme)”, the binding entry is “binds”.
